Assay: Caustic soda cooking (delignification) with adjuvant
Set-up: species or system moorland maritime pine
Procedure: Shavings of moorland maritime pine are subjected to heating in an autoclave with a caustic soda liquor. The cooking conditions are as follows:
Amount of caustic soda: 22% by weight with respect to the dry vegetable material.
Ratio of liquor/vegetable material: 4
Temperature of cooking: 170° C.
Time in which the cooking temperature
Time of cooking: 90 minutes
Amount of adjuvant: 0-0.1%-0.5%-1% by weight with respect to the dry vegetable material
After cooking, the pulps obtained are washed, disintegrated on a 3 mm grid (Vewerk grader or sorter).
The crude yield and the yield of sorted pulp are determined on the pulps, and the Kappa index according to French standard NFT 12018 are determined on the raw pulps.
The pH and the consumption of caustic soda are determined on the liquors after cooking.
A comparative test with 0.5% of anthraquinone was carried out under the same operational conditions as in Example 9.

Structure (SMILES) | pH of liquor after heating (0.1% adjuvant) | pH of liquor after heating (0.5% adjuvant) | pH of liquor after heating (1% adjuvant)
O=C1c2ccccc2C(=O)C2CCCCC12 (stereo not shown) [6 HAD, 1,2,3,4,4a,9a-hexahydro-9,10-anthracene-dione] | 12.4 | 12.4 | 12.4
O=C1c2ccccc2C(=O)c2ccccc21 [Anthraquinone, anthraquinone, reference compound] | – | 12.3 | –
